No constants are given. Whether binding was seen depends on the method and setting. Some results given as binding are weak or reduced against the parent protein; the word gives no strength. For some of these results: Sequences can lack the tags named with a protein.
T1: OX40-Fc (human, UniProt P43489 29-214)
T1 construct: extracellular domain; hinge included for covalent assembly; also called OX40 receptor-Fc fusion protein; not shown: human Fc gamma 1 region including the hinge region
T1 sequence (looked up): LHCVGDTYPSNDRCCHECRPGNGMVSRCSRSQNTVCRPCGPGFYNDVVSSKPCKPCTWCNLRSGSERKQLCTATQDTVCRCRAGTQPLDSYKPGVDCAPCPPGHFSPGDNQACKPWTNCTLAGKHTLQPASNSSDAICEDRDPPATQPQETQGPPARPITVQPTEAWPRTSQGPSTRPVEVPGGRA

Sequences of proteins named here, by UniProt entry; tags and fusion partners are left off. A change or cut given only in a name is not applied to a line headed by its entry.
UniProt P25942: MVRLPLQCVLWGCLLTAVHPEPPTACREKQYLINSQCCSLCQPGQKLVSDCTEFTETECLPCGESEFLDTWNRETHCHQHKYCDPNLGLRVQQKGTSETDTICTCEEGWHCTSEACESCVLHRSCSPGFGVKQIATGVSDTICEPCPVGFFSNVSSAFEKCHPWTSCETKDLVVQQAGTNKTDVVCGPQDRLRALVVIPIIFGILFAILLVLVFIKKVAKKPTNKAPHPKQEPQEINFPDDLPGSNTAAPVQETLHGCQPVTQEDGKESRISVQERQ

T2: OX40 receptor on cells (human, UniProt P43489 29-277)
T2 sequence (looked up): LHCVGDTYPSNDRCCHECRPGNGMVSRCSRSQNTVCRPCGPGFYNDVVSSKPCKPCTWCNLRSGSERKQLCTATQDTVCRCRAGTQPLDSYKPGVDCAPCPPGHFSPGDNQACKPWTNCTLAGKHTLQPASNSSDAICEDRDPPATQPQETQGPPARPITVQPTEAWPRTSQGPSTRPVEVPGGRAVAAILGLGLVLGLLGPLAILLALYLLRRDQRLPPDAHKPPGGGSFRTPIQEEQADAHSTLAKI

T3: CD27-Fc (human, UniProt P26842 20-191)
T3 construct: extracellular domain; hinge included for covalent assembly; also called CD27 receptor-Fc fusion protein; not shown: human Fc gamma 1 region including the hinge region
T3 sequence (looked up): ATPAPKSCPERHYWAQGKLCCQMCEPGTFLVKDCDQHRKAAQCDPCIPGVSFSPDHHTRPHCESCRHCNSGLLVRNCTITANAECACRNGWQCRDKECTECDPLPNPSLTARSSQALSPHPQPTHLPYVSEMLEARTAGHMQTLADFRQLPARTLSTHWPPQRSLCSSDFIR


Legend:
OX40-Fc [1] = molecular target: T1, OX40-Fc; experiment: flow cytometry, soluble receptor-Fc (10 nM) on cell-bound scDuokine
CD40-Fc [2] = molecular target: T4, CD40-Fc (human, UniProt P25942 21-193); experiment: as above
T4 construct: extracellular domain; hinge included for covalent assembly; also called CD40 receptor-Fc fusion protein; not shown: human Fc gamma 1 region including the hinge region

OX40-Fc [3] = molecular target: T1, OX40-Fc; experiment: ELISA, 100 nM, immobilized receptor-Fc
CD40-Fc [4] = molecular target: T4, CD40-Fc; experiment: ELISA, 100 nM, immobilized receptor-Fc
OX40-Fc [5] = molecular target: T1, OX40-Fc; experiment: ELISA, coated receptor-Fc
CD40-Fc [6] = molecular target: T4, CD40-Fc; experiment: ELISA, coated receptor-Fc
CD40 receptor on cells [7] = molecular target: T5, CD40 receptor on cells (human, UniProt P25942 21-277); experiment: flow cytometry, receptor on HT1080 cells, second receptor-Fc for detection
OX40 receptor on cells [8] = molecular target: T2, OX40 receptor on cells; experiment: as above
CD40 receptor on cells [9] = molecular target: T5, CD40 receptor on cells; experiment: flow cytometry, HT1080 transfectants, 100 nM
OX40 receptor on cells [10] = molecular target: T2, OX40 receptor on cells; experiment: flow cytometry, HT1080 transfectants, 100 nM
CD40 receptor on cells [11] = molecular target: T5, CD40 receptor on cells; experiment: flow cytometry on human PBMC, 10 nM, FLAG detection; CD40 on B cells
OX40-Fc [12] = molecular target: T1, OX40-Fc; experiment: ELISA titration from 316 nM
CD40-Fc [13] = molecular target: T4, CD40-Fc; experiment: ELISA titration from 316 nM
CD27-Fc [14] = molecular target: T3, CD27-Fc; experiment: flow cytometry, soluble receptor-Fc (10 nM) on cell-bound scDuokine
CD27-Fc [15] = molecular target: T3, CD27-Fc; experiment: ELISA, 100 nM, immobilized receptor-Fc
CD27-Fc [16] = molecular target: T3, CD27-Fc; experiment: ELISA, coated receptor-Fc
[17] = molecular target: CD27 receptor on cells (human) (UniProt P26842); experiment: flow cytometry, receptor on HT1080 cells, second receptor-Fc for detection
[18] = molecular target: CD27 receptor on cells (human) (UniProt P26842); experiment: flow cytometry on human PBMC, 10 nM, FLAG detection; CD27 on T cells
[19] = molecular target: CD27 receptor on cells (human) (UniProt P26842); experiment: flow cytometry, HT1080 transfectants, 100 nM
CD27-Fc [20] = molecular target: T3, CD27-Fc; experiment: ELISA titration from 316 nM
CD40 receptor on cells [21] = molecular target: T5, CD40 receptor on cells; experiment: flow cytometry on human PBMC, 10 nM, FLAG detection

Row | binding (OX40-Fc [1]) | binding (CD40-Fc [2]) | binding (OX40-Fc [3]) | binding (CD40-Fc [4]) | binding (OX40-Fc [5]) | binding (CD40-Fc [6]) | binding (CD40 receptor on cells [7]) | binding (OX40 receptor on cells [8]) | binding (CD40 receptor on cells [9]) | binding (OX40 receptor on cells [10]) | binding (CD40 receptor on cells [11]) | binding (OX40-Fc [12]) | binding (CD40-Fc [13]) | binding (CD27-Fc [14]) | binding (CD27-Fc [15]) | binding (CD27-Fc [16]) | binding [17] | binding [19] | binding (CD27-Fc [20]) | Binder | other results
1 | binds | binds | binds | binds | binds | binds | binds | binds | binds | binds | binds | binds | binds |  |  |  |  |  |  | scOX40L-scCD40L (ligand, scDuokine from HEK293, FLAG-purified; VH leader left out; also called single-chain Duokine scOX40L-scCD40L; not shown: N-terminal FLAG tag) QVSHRYPRIQSIKVQFTEYKKEKGFILTSQKEDEIMKVQNNSVIINCDGFYLISLKGYFSQEVNISLHYQKDEEPLFQLKKVRSVNSLMVASLTYKDKVYLNVTTDNTSLDDFHVNGGELILIHQNPGEFCVLGGGSGGGQVSHRYPRIQSIKVQFTEYKKEKGFILTSQKEDEIMKVQNNSVIINCDGFYLISLKGYFSQEVNISLHYQKDEEPLFQLKKVRSVNSLMVASLTYKDKVYLNVTTDNTSLDDFHVNGGELILIHQNPGEFCVLGGGSGGGQVSHRYPRIQSIKVQFTEYKKEKGFILTSQKEDEIMKVQNNSVIINCDGFYLISLKGYFSQEVNISLHYQKDEEPLFQLKKVRSVNSLMVASLTYKDKVYLNVTTDNTSLDDFHVNGGELILIHQNPGEFCVLGGGGSGGGTGGGGSGDQNPQIAAHVISEASSKTTSVLQWAEKGYYTMSNNLVTLENGKQLTVKRQGLYYIYAQVTFCSNREASSQAPFIASLCLKSPGRFERILLRAANTHSSAKPCGQQSIHLGGVFELQPGASVFVNVTDPSQVSHGTGFTSFGLLKLGGGSGGGGDQNPQIAAHVISEASSKTTSVLQWAEKGYYTMSNNLVTLENGKQLTVKRQGLYYIYAQVTFCSNREASSQAPFIASLCLKSPGRFERILLRAANTHSSAKPCGQQSIHLGGVFELQPGASVFVNVTDPSQVSHGTGFTSFGLLKLGGGSGGGGDQNPQIAAHVISEASSKTTSVLQWAEKGYYTMSNNLVTLENGKQLTVKRQGLYYIYAQVTFCSNREASSQAPFIASLCLKSPGRFERILLRAANTHSSAKPCGQQSIHLGGVFELQPGASVFVNVTDPSQVSHGTGFTSFGLLKL | 
2 | binds |  | binds |  | binds |  |  | binds |  | binds |  | binds |  | binds | binds | binds | binds | binds | binds | scOX40L-scCD27L (ligand, scDuokine from HEK293, FLAG-purified; VH leader left out; also called single-chain Duokine scOX40L-scCD27L; not shown: N-terminal FLAG tag) QVSHRYPRIQSIKVQFTEYKKEKGFILTSQKEDEIMKVQNNSVIINCDGFYLISLKGYFSQEVNISLHYQKDEEPLFQLKKVRSVNSLMVASLTYKDKVYLNVTTDNTSLDDFHVNGGELILIHQNPGEFCVLGGGSGGGQVSHRYPRIQSIKVQFTEYKKEKGFILTSQKEDEIMKVQNNSVIINCDGFYLISLKGYFSQEVNISLHYQKDEEPLFQLKKVRSVNSLMVASLTYKDKVYLNVTTDNTSLDDFHVNGGELILIHQNPGEFCVLGGGSGGGQVSHRYPRIQSIKVQFTEYKKEKGFILTSQKEDEIMKVQNNSVIINCDGFYLISLKGYFSQEVNISLHYQKDEEPLFQLKKVRSVNSLMVASLTYKDKVYLNVTTDNTSLDDFHVNGGELILIHQNPGEFCVLGGGGSGGGTGGGGSSLGWDVAELQLNHTGPQQDPRLYWQGGPALGRSFLHGPELDKGQLRIHRDGIYMVHIQVTLAICSSTTASRHHPTTLAVGICSPASRSISLLRLSFHQGCTIASQRLTPLARGDTLCTNLTGTLLPSRNTDETFFGVQWVRPGGGSGGGSLGWDVAELQLNHTGPQQDPRLYWQGGPALGRSFLHGPELDKGQLRIHRDGIYMVHIQVTLAICSSTTASRHHPTTLAVGICSPASRSISLLRLSFHQGCTIASQRLTPLARGDTLCTNLTGTLLPSRNTDETFFGVQWVRPGGGSGGGSLGWDVAELQLNHTGPQQDPRLYWQGGPALGRSFLHGPELDKGQLRIHRDGIYMVHIQVTLAICSSTTASRHHPTTLAVGICSPASRSISLLRLSFHQGCTIASQRLTPLARGDTLCTNLTGTLLPSRNTDETFFGVQWVRP | binding [18]: binds
3 |  | binds |  | binds |  | binds | binds |  | binds |  | binds |  | binds | binds | binds | binds | binds | binds | binds | scCD40L-scCD27L (ligand, scDuokine from HEK293, FLAG-purified; VH leader left out; also called single-chain Duokine scCD40L-scCD27L; not shown: N-terminal FLAG tag) GDQNPQIAAHVISEASSKTTSVLQWAEKGYYTMSNNLVTLENGKQLTVKRQGLYYIYAQVTFCSNREASSQAPFIASLCLKSPGRFERILLRAANTHSSAKPCGQQSIHLGGVFELQPGASVFVNVTDPSQVSHGTGFTSFGLLKLGGGSGGGGDQNPQIAAHVISEASSKTTSVLQWAEKGYYTMSNNLVTLENGKQLTVKRQGLYYIYAQVTFCSNREASSQAPFIASLCLKSPGRFERILLRAANTHSSAKPCGQQSIHLGGVFELQPGASVFVNVTDPSQVSHGTGFTSFGLLKLGGGSGGGGDQNPQIAAHVISEASSKTTSVLQWAEKGYYTMSNNLVTLENGKQLTVKRQGLYYIYAQVTFCSNREASSQAPFIASLCLKSPGRFERILLRAANTHSSAKPCGQQSIHLGGVFELQPGASVFVNVTDPSQVSHGTGFTSFGLLKLGGGGSGGGTGGGGSSLGWDVAELQLNHTGPQQDPRLYWQGGPALGRSFLHGPELDKGQLRIHRDGIYMVHIQVTLAICSSTTASRHHPTTLAVGICSPASRSISLLRLSFHQGCTIASQRLTPLARGDTLCTNLTGTLLPSRNTDETFFGVQWVRPGGGSGGGSLGWDVAELQLNHTGPQQDPRLYWQGGPALGRSFLHGPELDKGQLRIHRDGIYMVHIQVTLAICSSTTASRHHPTTLAVGICSPASRSISLLRLSFHQGCTIASQRLTPLARGDTLCTNLTGTLLPSRNTDETFFGVQWVRPGGGSGGGSLGWDVAELQLNHTGPQQDPRLYWQGGPALGRSFLHGPELDKGQLRIHRDGIYMVHIQVTLAICSSTTASRHHPTTLAVGICSPASRSISLLRLSFHQGCTIASQRLTPLARGDTLCTNLTGTLLPSRNTDETFFGVQWVRP | binding (CD40 receptor on cells [21]): binds
